Test results as given in the supplement of paper PMC8728848.
This is one part of the list.

Key:
Assay in all cases: glycan array binding signal (z-score within array); higher = stronger binding
Settings in all cases: glycan notation: IUPAC condensed, linker removed
Fuc(a1-2)Gal = biological target: Fuc(a1-2)Gal
Outline: (§1)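 From the Consortium for Functional Glycomics database, 3228 arrays were curated, keeping only those whose protein sequence was available. Binding is given as a within-array Z-score averaged across arrays sharing a protein sequence and across linkers. Negative Z-scores can be read as non-binding.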

Fuc(a1-2)Gal(b1-3)GalNAc = biological target: Fuc(a1-2)Gal(b1-3)GalNAc
Outline: as §1

[1] = biological target: Fuc(a1-2)Gal(b1-3)GalNAc(a1-3)[Fuc(a1-2)]Gal(b1-4)Glc
Outline: as §1

[2] = biological target: Fuc(a1-2)Gal(b1-3)GalNAc(a1-3)[Fuc(a1-2)]Gal(b1-4)GlcNAc
Outline: as §1

[3] = biological target: Fuc(a1-2)Gal(b1-3)GalNAc(b1-3)Gal
Outline: as §1

[4] = biological target: Fuc(a1-2)Gal(b1-3)GalNAc(b1-3)Gal(a1-4)Gal(b1-4)Glc
Outline: as §1

[5] = biological target: Fuc(a1-2)Gal(b1-3)GalNAc(b1-4)[Neu5Ac(a2-3)]Gal(b1-4)Glc
Outline: as §1

Fuc(a1-2)Gal(b1-3)GlcNAc = biological target: Fuc(a1-2)Gal(b1-3)GlcNAc
Outline: as §1

[6] = biological target: Fuc(a1-2)Gal(b1-3)GlcNAc(b1-2)Man(a1-3)[Fuc(a1-2)Gal(b1-3)GlcNAc(b1-2)Man(a1-6)]Man(b1-4)GlcNAc(b1-4)GlcNAc
Outline: as §1

[7] = biological target: Fuc(a1-2)Gal(b1-3)GlcNAc(b1-2)Man(a1-3)[Fuc(a1-2)Gal(b1-3)GlcNAc(b1-2)Man(a1-6)]Man(b1-4)GlcNAc(b1-4)[Fuc(a1-6)]GlcNAc
Outline: as §1

[8] = biological target: Fuc(a1-2)Gal(b1-3)GlcNAc(b1-3)Gal(b1-4)Glc
Outline: as §1

[9] = biological target: Fuc(a1-2)Gal(b1-3)GlcNAc(b1-3)GalNAc
Outline: as §1

[10] = biological target: Fuc(a1-2)Gal(b1-3)GlcNAc(b1-3)[Fuc(a1-2)Gal(b1-3)GlcNAc(b1-6)]GalNAc
Outline: as §1

[11] = biological target: Fuc(a1-2)Gal(b1-3)GlcNAc(b1-3)[Gal(b1-4)GlcNAc(b1-6)]Gal(b1-4)Glc
Outline: as §1

[12] = biological target: Fuc(a1-2)Gal(b1-3)GlcNAc(b1-3)[Neu5Ac(a2-6)Gal(b1-4)GlcNAc(b1-6)]Gal(b1-4)Glc
Outline: as §1

[13] = biological target: Fuc(a1-2)Gal(b1-3)GlcNAc6S
Outline: as §1

[14] = biological target: Fuc(a1-2)Gal(b1-3)[Fuc(a1-4)]GlcNAc
Outline: as §1

[15] = biological target: Fuc(a1-2)Gal(b1-3)[Fuc(a1-4)]GlcNAc(b1-2)Man(a1-3)[Fuc(a1-2)Gal(b1-3)[Fuc(a1-4)]GlcNAc(b1-2)Man(a1-3)]Man(b1-4)GlcNAc(b1-4)GlcNAc
Outline: as §1

[16] = biological target: Fuc(a1-2)Gal(b1-3)[Fuc(a1-4)]GlcNAc(b1-2)Man(a1-3)[Fuc(a1-2)Gal(b1-3)[Fuc(a1-4)]GlcNAc(b1-2)Man(a1-6)]Man(b1-4)GlcNAc(b1-4)[Fuc(a1-6)]GlcNAc(b1-4)[Fuc(a1-6)]GlcNAc
Outline: as §1

[17] = biological target: Fuc(a1-2)Gal(b1-3)[Fuc(a1-4)]GlcNAc(b1-3)[Fuc(a1-3)[Gal(b1-4)]GlcNAc(b1-6)]Gal(b1-4)Glc
Outline: as §1

[18] = biological target: Fuc(a1-2)Gal(b1-3)[Fuc(a1-4)]GlcNAc(b1-3)[Gal(b1-4)GlcNAc(b1-6)]Gal(b1-4)Glc
Outline: as §1

Fuc(a1-2)Gal(b1-4)Glc = biological target: Fuc(a1-2)Gal(b1-4)Glc
Outline: as §1

Fuc(a1-2)Gal(b1-4)Glc6S = biological target: Fuc(a1-2)Gal(b1-4)Glc6S
Outline: as §1

Fuc(a1-2)Gal(b1-4)GlcNAc = biological target: Fuc(a1-2)Gal(b1-4)GlcNAc
Outline: as §1

[19] = biological target: Fuc(a1-2)Gal(b1-4)GlcNAc(b1-2)Man
Outline: as §1

[20] = biological target: Fuc(a1-2)Gal(b1-4)GlcNAc(b1-2)Man(a1-3)[Fuc(a1-2)Gal(b1-4)GlcNAc(b1-2)Man(a1-6)]Man(b1-4)GlcNAc(b1-4)GlcNAc
Outline: as §1

[21] = biological target: Fuc(a1-2)Gal(b1-4)GlcNAc(b1-2)Man(a1-3)[Fuc(a1-2)Gal(b1-4)GlcNAc(b1-2)Man(a1-6)]Man(b1-4)GlcNAc(b1-4)[Fuc(a1-6)]GlcNAc
Outline: as §1

[22] = biological target: Fuc(a1-2)Gal(b1-4)GlcNAc(b1-2)[Fuc(a1-2)Gal(b1-4)GlcNAc(b1-4)]Man(a1-3)[Fuc(a1-2)Gal(b1-4)GlcNAc(b1-2)Man(a1-6)]Man(b1-4)GlcNAc(b1-4)GlcNAc
Outline: as §1

[23] = biological target: Fuc(a1-2)Gal(b1-4)GlcNAc(b1-3)Gal(b1-4)GlcNAc
Outline: as §1

[24] = biological target: Fuc(a1-2)Gal(b1-4)GlcNAc(b1-3)Gal(b1-4)GlcNAc(b1-2)Man(a1-3)[Fuc(a1-2)Gal(b1-4)GlcNAc(b1-3)Gal(b1-4)GlcNAc(b1-2)Man(a1-6)]Man(b1-4)GlcNAc(b1-4)GlcNAc
Outline: as §1

[25] = biological target: Fuc(a1-2)Gal(b1-4)GlcNAc(b1-3)Gal(b1-4)GlcNAc(b1-3)Gal(b1-4)GlcNAc
Outline: as §1

[26] = biological target: Fuc(a1-2)Gal(b1-4)GlcNAc(b1-3)GalNAc
Outline: as §1

[27] = biological target: Fuc(a1-2)Gal(b1-4)GlcNAc(b1-3)[Fuc(a1-2)Gal(b1-4)GlcNAc(b1-6)]GalNAc
Outline: as §1

[28] = biological target: Fuc(a1-2)Gal(b1-4)GlcNAc(b1-3)[Fuc(a1-3)[Gal(b1-4)]GlcNAc(b1-6)]Gal(b1-4)Glc
Outline: as §1

[29] = biological target: Fuc(a1-2)Gal(b1-4)GlcNAc(b1-6)GalNAc
Outline: as §1

[30] = biological target: Fuc(a1-2)Gal(b1-4)GlcNAc6S
Outline: as §1

[31] = biological target: Fuc(a1-2)Gal(b1-4)[Fuc(a1-3)]GlcNAc
Outline: as §1

B1: B936 (Bifidobacterium sp) (protein)
chain: MKNWKKAIALVASAAALVSVAACGPSNAGGSSDSGKKTVGFVAVGPEGGFRTANEKDIQKAFEDAGFDLTYSPTQNNDQQKQIQAFNKFVNDEVDAIILSSTEDSGWDDSLKKAAEAEIPVFTVDRNVDVKDAEAKKAIVAHIGPSNVWCGEQAAEFVNKNFPDGANGFILEGPAGLSVVKDRGTGWGNKVASNVKVLESQSANWSTDEAKTVTAGLLDKYKSDNPQFIFAQNDEMGLGAAQAVDAAGLKGKVKIITIDGTKNALQALVDGDLSYVIEYNPIFGKETAQAVKDYLDGKTVEKDIEIESKTFDAASAKEALDNNTRAY
- glycan array binding signal (z-score) (Fuc(a1-2)Gal): -0.846
- glycan array binding signal (z-score) (Fuc(a1-2)Gal(b1-3)GalNAc): 0.49
- glycan array binding signal (z-score) [1]: -0.652
- glycan array binding signal (z-score) [2]: 0.062
- glycan array binding signal (z-score) [3]: -0.444
- glycan array binding signal (z-score) [4]: -0.438
- glycan array binding signal (z-score) [5]: -0.493
- glycan array binding signal (z-score) (Fuc(a1-2)Gal(b1-3)GlcNAc): -0.319
- glycan array binding signal (z-score) [6]: -0.888
- glycan array binding signal (z-score) [7]: -0.295
- glycan array binding signal (z-score) [8]: -0.482
- glycan array binding signal (z-score) [9]: 0.88
- glycan array binding signal (z-score) [10]: 0.197
- glycan array binding signal (z-score) [11]: -0.582
- glycan array binding signal (z-score) [12]: 0.956
- glycan array binding signal (z-score) [13]: -0.871
- glycan array binding signal (z-score) [14]: -0.349
- glycan array binding signal (z-score) [15]: 1.16
- glycan array binding signal (z-score) [16]: 0.583
- glycan array binding signal (z-score) [17]: -0.075
- glycan array binding signal (z-score) [18]: -0.594
- glycan array binding signal (z-score) (Fuc(a1-2)Gal(b1-4)Glc): 0.21
- glycan array binding signal (z-score) (Fuc(a1-2)Gal(b1-4)Glc6S): 0.842
- glycan array binding signal (z-score) (Fuc(a1-2)Gal(b1-4)GlcNAc): -0.459
- glycan array binding signal (z-score) [19]: 0.316
- glycan array binding signal (z-score) [20]: 0.486
- glycan array binding signal (z-score) [21]: 0.957
- glycan array binding signal (z-score) [22]: 1.25
- glycan array binding signal (z-score) [23]: -0.114
- glycan array binding signal (z-score) [24]: 0.417
- glycan array binding signal (z-score) [25]: 0.208
- glycan array binding signal (z-score) [26]: 0.09
- glycan array binding signal (z-score) [27]: 0.272
- glycan array binding signal (z-score) [28]: -0.124
- glycan array binding signal (z-score) [29]: 0.119
- glycan array binding signal (z-score) [30]: -0.093
- glycan array binding signal (z-score) [31]: -0.396
